Measured values from the supplement of paper PMC11732987, “Enantioselective OTUD7B fragment discovery through chemoproteomics screening and high-throughput optimisation” (Communications Chemistry, 2025).
The list shows a part of the results. The data scatter; read single values as rough.

Sequences of proteins named here, by UniProt entry; tags and fusion partners are left off. A change or cut given only in a name is not applied to a line headed by its entry. Residues count along the entry.
UniProt Q96JM3: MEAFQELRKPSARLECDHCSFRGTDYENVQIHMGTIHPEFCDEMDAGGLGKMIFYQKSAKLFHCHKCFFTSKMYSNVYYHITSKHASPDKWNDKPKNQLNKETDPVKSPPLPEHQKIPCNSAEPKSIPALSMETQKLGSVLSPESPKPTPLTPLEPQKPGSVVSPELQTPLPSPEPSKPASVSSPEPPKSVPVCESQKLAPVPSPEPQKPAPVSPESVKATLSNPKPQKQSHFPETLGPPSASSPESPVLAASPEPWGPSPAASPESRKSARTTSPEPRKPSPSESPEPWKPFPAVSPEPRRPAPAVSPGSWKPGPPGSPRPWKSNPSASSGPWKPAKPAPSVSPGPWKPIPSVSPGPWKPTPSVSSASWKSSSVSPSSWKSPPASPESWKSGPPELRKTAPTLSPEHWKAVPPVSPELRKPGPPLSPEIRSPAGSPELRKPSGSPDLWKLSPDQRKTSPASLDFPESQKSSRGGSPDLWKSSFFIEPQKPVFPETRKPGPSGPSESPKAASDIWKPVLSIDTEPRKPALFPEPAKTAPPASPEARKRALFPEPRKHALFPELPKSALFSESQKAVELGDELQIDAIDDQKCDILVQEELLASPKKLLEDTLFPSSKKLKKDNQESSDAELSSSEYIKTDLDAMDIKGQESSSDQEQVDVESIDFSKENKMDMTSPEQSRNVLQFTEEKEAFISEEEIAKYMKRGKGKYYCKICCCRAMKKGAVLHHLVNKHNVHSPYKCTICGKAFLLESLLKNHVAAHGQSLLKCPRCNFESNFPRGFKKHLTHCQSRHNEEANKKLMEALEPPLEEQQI
UniProt Q9P2B7: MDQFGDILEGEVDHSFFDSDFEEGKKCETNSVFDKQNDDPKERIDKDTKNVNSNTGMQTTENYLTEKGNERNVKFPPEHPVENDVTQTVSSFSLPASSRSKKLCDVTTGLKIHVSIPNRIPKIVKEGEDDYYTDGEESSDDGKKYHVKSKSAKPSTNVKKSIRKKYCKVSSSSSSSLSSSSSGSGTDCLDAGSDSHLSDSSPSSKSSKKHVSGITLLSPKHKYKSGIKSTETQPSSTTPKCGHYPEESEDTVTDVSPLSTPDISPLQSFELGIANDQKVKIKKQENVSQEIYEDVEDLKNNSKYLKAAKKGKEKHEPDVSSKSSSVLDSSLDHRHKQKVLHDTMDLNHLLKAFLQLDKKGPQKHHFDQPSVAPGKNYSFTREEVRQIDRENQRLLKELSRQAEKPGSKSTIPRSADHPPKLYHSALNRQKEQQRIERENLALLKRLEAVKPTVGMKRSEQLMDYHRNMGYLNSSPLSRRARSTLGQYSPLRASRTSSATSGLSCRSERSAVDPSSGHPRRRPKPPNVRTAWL
UniProt Q66GS9: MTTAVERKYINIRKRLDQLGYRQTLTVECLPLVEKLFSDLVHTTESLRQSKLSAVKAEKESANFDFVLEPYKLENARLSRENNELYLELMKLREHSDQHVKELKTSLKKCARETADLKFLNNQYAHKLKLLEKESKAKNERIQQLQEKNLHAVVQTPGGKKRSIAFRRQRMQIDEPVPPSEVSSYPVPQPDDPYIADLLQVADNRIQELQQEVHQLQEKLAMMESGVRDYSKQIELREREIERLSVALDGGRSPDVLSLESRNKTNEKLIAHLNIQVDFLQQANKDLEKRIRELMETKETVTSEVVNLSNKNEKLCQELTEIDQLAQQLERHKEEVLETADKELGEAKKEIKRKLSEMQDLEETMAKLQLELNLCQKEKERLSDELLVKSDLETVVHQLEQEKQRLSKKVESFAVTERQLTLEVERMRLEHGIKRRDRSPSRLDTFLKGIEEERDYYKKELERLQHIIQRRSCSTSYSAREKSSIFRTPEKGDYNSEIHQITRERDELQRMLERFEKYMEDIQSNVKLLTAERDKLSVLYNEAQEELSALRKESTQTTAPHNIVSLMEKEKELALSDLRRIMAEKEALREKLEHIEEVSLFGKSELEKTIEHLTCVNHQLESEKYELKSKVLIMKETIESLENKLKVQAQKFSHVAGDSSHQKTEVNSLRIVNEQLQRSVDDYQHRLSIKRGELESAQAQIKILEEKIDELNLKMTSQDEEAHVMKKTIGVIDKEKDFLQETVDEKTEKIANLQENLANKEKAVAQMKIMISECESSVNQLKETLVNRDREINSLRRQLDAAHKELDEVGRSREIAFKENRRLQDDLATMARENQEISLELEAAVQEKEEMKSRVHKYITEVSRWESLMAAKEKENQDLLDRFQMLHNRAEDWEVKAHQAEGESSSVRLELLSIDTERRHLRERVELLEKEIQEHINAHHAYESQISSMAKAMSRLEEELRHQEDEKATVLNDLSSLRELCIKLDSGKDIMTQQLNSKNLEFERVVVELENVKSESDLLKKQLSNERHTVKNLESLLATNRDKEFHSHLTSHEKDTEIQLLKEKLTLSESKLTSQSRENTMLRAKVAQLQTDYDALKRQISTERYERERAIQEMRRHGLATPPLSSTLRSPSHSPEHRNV
UniProt Q12873, 1537-1563: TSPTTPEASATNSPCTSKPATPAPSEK
UniProt Q02224: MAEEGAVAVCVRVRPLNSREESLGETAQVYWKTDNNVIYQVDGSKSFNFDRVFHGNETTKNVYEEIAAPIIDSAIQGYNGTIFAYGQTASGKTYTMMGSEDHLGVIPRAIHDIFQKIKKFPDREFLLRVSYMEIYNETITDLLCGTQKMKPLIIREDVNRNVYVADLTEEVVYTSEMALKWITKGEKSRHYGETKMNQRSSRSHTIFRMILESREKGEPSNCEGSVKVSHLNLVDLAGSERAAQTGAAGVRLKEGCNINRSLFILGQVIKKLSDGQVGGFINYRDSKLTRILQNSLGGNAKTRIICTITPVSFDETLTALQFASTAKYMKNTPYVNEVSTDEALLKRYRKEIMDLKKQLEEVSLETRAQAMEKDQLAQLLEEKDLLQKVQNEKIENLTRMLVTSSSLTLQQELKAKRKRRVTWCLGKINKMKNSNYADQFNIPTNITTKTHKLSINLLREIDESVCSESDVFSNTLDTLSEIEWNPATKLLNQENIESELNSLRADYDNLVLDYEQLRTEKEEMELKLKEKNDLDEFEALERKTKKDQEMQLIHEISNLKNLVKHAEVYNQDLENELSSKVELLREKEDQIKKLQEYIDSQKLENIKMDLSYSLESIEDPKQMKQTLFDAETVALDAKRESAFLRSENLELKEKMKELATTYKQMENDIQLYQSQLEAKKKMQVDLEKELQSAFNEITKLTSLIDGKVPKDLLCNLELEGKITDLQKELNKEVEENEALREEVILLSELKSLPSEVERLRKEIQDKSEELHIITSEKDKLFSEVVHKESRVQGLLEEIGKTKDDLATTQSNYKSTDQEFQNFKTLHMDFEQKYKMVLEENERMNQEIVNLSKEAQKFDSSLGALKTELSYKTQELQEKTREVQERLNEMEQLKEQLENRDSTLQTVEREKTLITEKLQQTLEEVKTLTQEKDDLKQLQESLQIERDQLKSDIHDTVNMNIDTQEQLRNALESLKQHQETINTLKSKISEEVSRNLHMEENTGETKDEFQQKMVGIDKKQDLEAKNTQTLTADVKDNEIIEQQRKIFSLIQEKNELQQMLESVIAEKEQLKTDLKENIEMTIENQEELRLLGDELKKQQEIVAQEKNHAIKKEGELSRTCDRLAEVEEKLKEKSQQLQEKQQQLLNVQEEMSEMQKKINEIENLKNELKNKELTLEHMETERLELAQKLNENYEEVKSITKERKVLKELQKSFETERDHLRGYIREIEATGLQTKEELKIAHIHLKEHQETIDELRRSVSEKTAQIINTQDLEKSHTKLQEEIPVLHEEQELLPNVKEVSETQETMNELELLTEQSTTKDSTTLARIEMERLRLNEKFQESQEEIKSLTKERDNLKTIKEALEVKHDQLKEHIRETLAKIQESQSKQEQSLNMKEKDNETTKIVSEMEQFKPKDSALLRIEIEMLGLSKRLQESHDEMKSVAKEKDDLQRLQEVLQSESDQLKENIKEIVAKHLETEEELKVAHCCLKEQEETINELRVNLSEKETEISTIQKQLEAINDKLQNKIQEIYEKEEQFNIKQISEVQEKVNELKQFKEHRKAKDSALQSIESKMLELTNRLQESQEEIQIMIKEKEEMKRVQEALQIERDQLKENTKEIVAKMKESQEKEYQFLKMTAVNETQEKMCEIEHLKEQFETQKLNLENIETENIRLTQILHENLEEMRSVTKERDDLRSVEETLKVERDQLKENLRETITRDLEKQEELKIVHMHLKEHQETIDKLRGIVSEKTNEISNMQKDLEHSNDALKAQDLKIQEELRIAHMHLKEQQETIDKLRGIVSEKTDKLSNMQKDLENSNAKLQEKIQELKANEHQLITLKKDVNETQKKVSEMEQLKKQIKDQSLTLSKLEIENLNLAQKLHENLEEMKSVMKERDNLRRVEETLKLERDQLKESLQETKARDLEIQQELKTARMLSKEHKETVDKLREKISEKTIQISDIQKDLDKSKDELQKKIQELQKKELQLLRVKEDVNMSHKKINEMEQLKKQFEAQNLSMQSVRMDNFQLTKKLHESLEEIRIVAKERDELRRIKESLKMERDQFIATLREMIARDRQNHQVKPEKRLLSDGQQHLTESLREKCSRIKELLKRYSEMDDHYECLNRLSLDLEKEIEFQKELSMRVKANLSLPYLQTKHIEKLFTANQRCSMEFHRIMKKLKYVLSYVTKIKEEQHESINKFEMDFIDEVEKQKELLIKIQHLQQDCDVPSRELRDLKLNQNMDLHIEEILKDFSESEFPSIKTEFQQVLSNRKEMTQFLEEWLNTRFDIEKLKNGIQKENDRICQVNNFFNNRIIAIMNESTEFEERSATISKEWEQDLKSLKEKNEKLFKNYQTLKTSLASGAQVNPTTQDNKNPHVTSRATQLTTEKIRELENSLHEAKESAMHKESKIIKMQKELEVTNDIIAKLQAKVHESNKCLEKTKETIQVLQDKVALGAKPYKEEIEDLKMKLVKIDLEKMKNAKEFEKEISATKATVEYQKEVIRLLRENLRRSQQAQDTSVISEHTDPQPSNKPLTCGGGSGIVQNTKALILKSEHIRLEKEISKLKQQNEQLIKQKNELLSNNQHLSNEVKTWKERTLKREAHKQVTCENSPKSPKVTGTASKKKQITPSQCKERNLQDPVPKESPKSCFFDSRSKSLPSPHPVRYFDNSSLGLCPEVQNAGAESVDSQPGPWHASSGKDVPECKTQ
UniProt Q96SZ6: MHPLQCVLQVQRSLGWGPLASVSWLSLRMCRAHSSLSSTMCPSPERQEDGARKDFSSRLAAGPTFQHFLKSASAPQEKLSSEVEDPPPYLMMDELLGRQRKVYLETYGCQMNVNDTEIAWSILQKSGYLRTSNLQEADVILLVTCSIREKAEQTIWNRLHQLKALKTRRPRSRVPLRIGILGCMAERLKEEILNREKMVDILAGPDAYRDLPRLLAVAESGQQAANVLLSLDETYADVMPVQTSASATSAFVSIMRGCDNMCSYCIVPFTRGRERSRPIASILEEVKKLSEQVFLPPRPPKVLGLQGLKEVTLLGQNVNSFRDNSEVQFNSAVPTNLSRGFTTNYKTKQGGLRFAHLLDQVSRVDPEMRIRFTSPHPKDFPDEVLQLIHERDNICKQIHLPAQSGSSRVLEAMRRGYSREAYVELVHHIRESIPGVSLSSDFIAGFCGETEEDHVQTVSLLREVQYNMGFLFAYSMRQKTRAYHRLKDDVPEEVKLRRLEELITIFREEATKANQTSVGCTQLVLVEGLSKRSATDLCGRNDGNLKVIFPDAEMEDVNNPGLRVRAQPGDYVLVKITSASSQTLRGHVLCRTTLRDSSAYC
UniProt P48643, whole entry, looked up: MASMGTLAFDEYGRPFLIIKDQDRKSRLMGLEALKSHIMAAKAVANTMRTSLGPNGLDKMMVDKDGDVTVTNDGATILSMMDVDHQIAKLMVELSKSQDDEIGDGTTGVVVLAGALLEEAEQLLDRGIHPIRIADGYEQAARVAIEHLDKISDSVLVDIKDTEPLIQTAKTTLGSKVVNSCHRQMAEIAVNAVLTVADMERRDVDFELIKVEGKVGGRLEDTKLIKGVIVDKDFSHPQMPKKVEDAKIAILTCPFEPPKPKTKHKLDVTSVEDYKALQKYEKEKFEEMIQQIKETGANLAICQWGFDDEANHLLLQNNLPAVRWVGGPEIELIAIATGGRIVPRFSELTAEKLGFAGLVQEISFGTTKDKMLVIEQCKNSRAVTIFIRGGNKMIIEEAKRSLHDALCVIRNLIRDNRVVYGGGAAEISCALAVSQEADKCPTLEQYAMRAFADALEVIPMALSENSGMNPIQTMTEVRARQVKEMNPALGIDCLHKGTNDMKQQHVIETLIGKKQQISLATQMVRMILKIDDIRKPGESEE
UniProt P48643, 418-439: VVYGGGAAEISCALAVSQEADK

compound: ClCC(=O)N[C@@H]1CCCc2ccccc12; assay: log2 mean competition ratio of IA-DTB cysteine labelling (DMSO/compound) (log2 ratio); higher = stronger cysteine engagement by compound; settings: 50 µM; treatment time: 4 h; cell line lysate: HEK293T
Method: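 IA-DTB competitive cysteine chemoproteomics in HEK293T RIPA lysate. Lysates were treated with compound 29 or 30 at 50 or 200 µM for 4 h, then IA-DTB (500 µM, 1 h), trypsin-digested, NeutrAvidin-enriched and analysed by diaPASEF. Competition ratio = intensity DMSO / intensity compound (n=4 treated, n=64 DMSO); binding: mean log2 CR ≥ 1 and p ≤ 0.05 plus QC filters. Target is the cysteine site.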

Target | log2 mean competition ratio
CEP192 C594 (UniProt Q8TEP8) | -0.0671
CHAMP1 C119 (UniProt Q96JM3) | -0.00765
CFAP97 C504 (UniProt Q9P2B7) | 0.104
CBX8 C142 (UniProt Q9HC52) | -0.0678
CHAMP1 C194 (UniProt Q96JM3) | -0.0805
CEP135 C473 (UniProt Q66GS9) | 0.377
CHD3 C1838 (UniProt Q12873) | -0.0435
CDX2 C166 | 0.236
CENPE C2626 (UniProt Q02224) | -0.0462
CHD3 C1551 (UniProt Q12873) | 0.41
CDK5RAP2 C249 (UniProt Q96SN8) | 0.124
CDC23 C489 (UniProt Q9UJX2) | -0.062
CCDC106 C184 | -0.0192
CC2D1B C809 (UniProt Q5T0F9) | -0.0895
CDK5RAP1 C538 (UniProt Q96SZ6) | -0.213
CCT6A C282 (UniProt P40227) | -0.0758
CDCA2 C280 (UniProt Q69YH5) | -0.173
CCT5 C181 (UniProt P48643) | 0.174
CCT5 C429 (UniProt P48643) | -0.143
CDKN2AIP C503 (UniProt Q9NXV6) | -0.134

same assay, conditions: 200 µM; treatment time: 4 h; cell line lysate: HEK293T

Target | log2 mean competition ratio
CEP192 C594 (UniProt Q8TEP8) | 0.319
CHAMP1 C119 (UniProt Q96JM3) | -0.292
CFAP97 C504 (UniProt Q9P2B7) | 0.162
CBX8 C142 (UniProt Q9HC52) | 0.0194
CHAMP1 C194 (UniProt Q96JM3) | -0.0857
CEP135 C473 (UniProt Q66GS9) | 0.162
CHD3 C1838 (UniProt Q12873) | 0.135
CDX2 C166 | 0.325
CENPE C2626 (UniProt Q02224) | 0.165
CHD3 C1551 (UniProt Q12873) | -0.427
CDK5RAP2 C249 (UniProt Q96SN8) | 0.162
CDC23 C489 (UniProt Q9UJX2) | -0.197
CCDC106 C184 | 0.228
CC2D1B C809 (UniProt Q5T0F9) | -0.0386
CDK5RAP1 C538 (UniProt Q96SZ6) | 0.0673
CCT6A C282 (UniProt P40227) | -0.152
CDCA2 C280 (UniProt Q69YH5) | 0.0262
CCT5 C181 (UniProt P48643) | -0.426
CCT5 C429 (UniProt P48643) | -0.264
CDKN2AIP C503 (UniProt Q9NXV6) | 0.166
